Source: patent US20260266848A1, “COMPOSITIONS AND METHODS FOR DIAGNOSING AND TREATING DYSTONIA” (Duke University, priority 2023, published 2026)

B1: Gart (protein, UniProt Q64737 2-1010, looked up)
Trifunctional purine …: AARVLVIGSGGREHTLAWKLAQSPQVKQVLVAPGNAGTACAGKISNAAVSVNDHSALAQFCKDEKIELVVVGPEAPLAAGIVGDLTSAGVRCFGPTAQAAQLESSKKFAKEFMDRHEIPTAQWRAFTNPEDACSFITSANFPALVVKASGLAAGKGVIVAKSQAEACRAVQEIMQEKSFGAAGETVVVEEFLEGEEVSCLCFTDGKTVAEMPPAQDHKRLLDGDEGPNTGGMGAYCPAPQVSKDLLVKIKNTILQRAVDGMQQEGAPYTGILYAGIMLTKDGPKVLEFNCRFGDPECQVILPLLKSDLYEVMQSTLDGLLSASLPVWLENHSAVTVVMASKGYPGAYTKGVEITGFPEAQALGLQVFHAGTALKDGKVVTSGGRVLTVTAVQENLMSALAEARKGLAALKFEGAIYRKDIGFRAVAFLQRPRGLTYKDSGVDIAAGNMLVKKIQPLAKATSRPGCSVDLGGFAGLFDLKAAGFKDPLLASGTDGVGTKLKIAQLCNKHDSIGQDLVAMCVNDILAQGAEPLFFLDYFSCGKLDLSTTEAVIAGIAAACQQAGCALLGGETAEMPNMYPPGEYDLAGFAVGAMERHQKLPQLERITEGDAVIGVASSGLHSNGFSLVRKIVERSSLQYSSPAPGGCGDQTLGDLLLTPTRIYSHSLLPIIRSGRVKAFAHITGGGLLENIPRVLPQKFGVDLDASTWRVPKVFSWLQQEGELSEEEMARTFNCGIGAALVVSKDQAEQVLHDVRRRQEEAWVIGSVVACPEDSPRVRVKNLIETIQTNGSLVANGFLKSNFPVQQKKARVAVLISGTGSNLQALIDSTRDPKSSSHIVLVISNKAAVAGLDRAERAGIPTRVINHKLYKNRVEFDNAVDHVLEEFSVDIVCLAGFMRILSGPFVRKWDGKMLNIHPSLLPSFKGSNAHEQVLEAGVTITGCTVHFVAEDVDAGQIILQEAVPVRRGDTVATLSERVKVAEHKIFPAALQLVASGAVQLREDGKIHWAKEQ
B2: Ipo9 (protein, UniProt Q91YE6 2-1041, looked up)
Importin-9: AAAAAAGAASGLPGPVAQGLKEALVDTLTGILSPVQEVRAAAEEQIKVLEVTEEFGVHLAELTVDPQGALAIRQLASVILKQYVETHWCAQSEKFRPPETTERAKIVIRELLPNGLRESISKVRSSVAYAVSAIAHWDWPEAWPQLFNLLMEMLVSGDLNAVHGAMRVLTEFTREVTDTQMPLVAPVILPEMYKIFTMAEVYGIRTRSRAVEIFTTCAHMICNMEELEKGAAKVLIFPVVQQFTEAFVQALQMPDGPTSDSGFKMEVLKAVTALVKNFPKHMVSSMQQILPIVWNTLTESAAFYVRTEVNYTEEVEDPVDSDGEVLGFENLVFSIFEFVHALLENSKFKSTVKKALPELIYYIILYMQITEEQIKVWTANPQQFVEDEDDDTFSYTVRIAAQDLLLAVATDFQNESAVALATAATRHLQEAEQTKASGTEHWWKIHEACMLALGSVKSIITDSVKNGRIHFDMHGFLTNVILADLNLSASPFLLGRALWAASRFTVAMSPELIQQFLQATVSGLHETQPPSVRISAVRAIWGYCDQLKVSESTHVLQPFLPSILDGLIHLAAQFSSEVLNLVMETLCIVCTVDPEFTASVENKICPFTIAIFLKYSNDPVVASLAQDIFKELSQIEACQGPMQMRLIPTLVSIMQAPADKIPAGLCATAIDILTTVVRNTKPPLSQLLICQAFPAVAQCTLHTDDNATMQNGGECLRAYVSVTLEQVAQWHDEQGHNGLWYVMQVVSQLLDPRTSEFTAAFVGRLVSTLISKAGRELGENLDQILRAILSKMQQAETLSVMQSLIMVFAHLVHTQLEPLLEFLCSLPGPTGKPALEFVMAEWTSRQHLFYGQYEGKVSSVALCKLLQHGINADDKRLQDIRVKGEEIYSMDEGIRTRSKSAKNPERWTNIPLLVKILKLIINELSNVMEANAARQATPAEWNQDDSNDMWEDQEEEEEEEEDGLAGQLLSDILATSKYEEDYYEDDEEDDPDALKDPLYQIDLQAYLTDFLCQFAQQPCYIMFSCHLNDNERRVLQTIGI
B3: Wdr26 (protein, UniProt Q8C6G8 1-641, looked up)
WD repeat-containing protein …: MQANGAGGGGGGGGGGQGQTPELACLSAQNGESSPSATSAGDLAHANGLLPAAPSAAGNNSNSLSVNNGVPGGAAAASATAAAAQATPELGSSLKKKKRLSQSDEDVIRLIGQHLNGLGLNQTVDLLMQESGCRLEHPSATKFRNHVMEGDWDKAENDLNELKPLVHSPHAIVVRGALEISQTLLGIIVRMKFLLLQQKYLEYLEDGKVLEALQVLRCELTPLKYNTERIHVLSGYLMCSHAEDLRAKAEWEGKGTASRSKLLDKLQTYLPPSVMLPPRRLQTLLRQAVELQRDRCLYHNTKLDNNLDSVSLLIDHVCSRRQFPCYTQQILTEHCNEVWFCKFSNDGTKLATGSKDTTVIIWQVDPDTHLLKLLKTLEGHAYGVSYIAWSPDDSYLVACGPDDCSELWLWNVQTGELRTKMSQSHEDSLTSVAWNPDGKRFVTGGQRGQFYQCDLDGNLLDSWEGVRVQCLWCLSDGKTVLASDTHQRVRGYNFEDLTDRNIVQEDHPIMSFTISKNGRLALLNVATQGVHLWDLQDRVLVRKYQGVTQGFYTIHSCFGGHNEDFIASGSEDHKVYIWHKRSELPIAELTGHTRTVNCVSWNPQIPSMMASASDDGTVRIWGPAPFIDHQNIEEECSSMDS
B4: Lipg (protein, UniProt Q9WVG5 21-500, looked up)
Endothelial lipase: SITTLRPQGSLRDEHHKPTGVPATARPSVAFNIRTSKDPEQEGCNLSLGDSKLLENCGFNMTAKTFFIIHGWTMSGMFESWLHKLVSALQMREKDANVVVVDWLPLAHQLYTDAVNNTRVVGQRVAGMLDWLQEKEEFSLGNVHLIGYSLGAHVAGYAGNFVKGTVGRITGLDPAGPMFEGVDINRRLSPDDADFVDVLHTYTLSFGLSIGIRMPVGHIDIYPNGGDFQPGCGFNDVIGSFAYGTISEMVKCEHERAVHLFVDSLVNQDKPSFAFQCTDSSRFKRGICLSCRKNRCNNIGYNAKKMRKKRNSKMYLKTRAGMPFKVYHYQLKVHMFSYNNSGDTQPTLYITLYGSNADSQNLPLEIVEKIELNATNTFLVYTEEDLGDLLKMRLTWEGVAHSWYNLWNEFRNYLSQPSNPSRELYIRRIRVKSGETQRKVTFCTQDPTKSSISPGQELWFHKCQDGWKMKNKTSPFVNLA
B5: Ndnf (protein, UniProt Q8C119 20-568, looked up)
Protein NDNF: QKLPTRDEELFQMQIRDKEFFHDSSVIPDGAEVSSYLFRDTPRRYFFMVEEDNTPLSVTVTPCDAPLEWKLSLQELHEGSSADGSGDPELLDQQKQQMTDVEGTELFSYKGNDVEYFLSSSSPSGLYQLELLSTEKDTHFKVYATTTPESDQPYPELPYDPRVDVTSFGRTTVTLAWKPSPTASILKQPIEYCVVINKEHNFKSLCAAETKMNADDAFMVAPKPGLDFNPFDFAHFGFPTDNLGKDRSLLAKPSPKVGRHVYWRPKVDIQKICIGNKNIFTVSDLKPDTQYYFDVFMVNTNTNMSTAYVGAFVRTKEEAKQKTVELKDGRVTDVFVKRKGKKFLRFAPVSSHQKVTFFIHSCMDAVQVQVRRDGRLLLSQNVEGIRQFQLRGKPKGKYLIRLKGNRKGASKLKILATTRPSKHAFPSLPEDTRIKAFDKLRTCSSVTVAWLGTQERRKFCIYRKEVDGNYSEDQKRREQNQCLGPDTRKKSEKVLCKYFHSQNLQKAVTTETIRDLQPGKSYLLDVYVVGHGGHSVKYQSKIVKTRKVC
B6: Rap2b (protein, UniProt P61226 1-180, looked up)
Ras-related protein Rap-2b: MREYKVVVLGSGGVGKSALTVQFVTGSFIEKYDPTIEDFYRKEIEVDSSPSVLEILDTAGTEQFASMRDLYIKNGQGFILVYSLVNQQSFQDIKPMRDQIIRVKRYERVPMILVGNKVDLEGEREVSYGEGKALAEEWSCPFMETSAKNKASVDELFAEIVRQMNYAAQPNGDEGCCSAC
B7: Acaa1a (protein, UniProt Q921H8 27-424, looked up)
3-ketoacyl-CoA thiolase A, …: SARFPQASASDVVVVHGRRTPIGRASRGGFKNTTPDELLSAVLTAVLQDVRLKPEQLGDISVGNVLEPGAGAVMARIAQFLSGIPETVPLSTVNRQCSSGLQAVANIAGGIRNGSYDIGMACGVESMSLSGMGNPGNISSRLLESEKARDCLTPMGMTSENVAERFGISRQKQDDFALASQQKAASAQSRGCFRAEIVPVTTTVLDDKGDKKTITVSQDEGVRPSTTMQGLAKLKPAFKDGGSTTAGNSSQVSDGAAAVLLARRSKAEELGLPILGVLRSYAVVGVPPDVMGIGPAYAIPAALQKAGLTVNDIDIFEINEAFASQAVYCVEKLGIPAEKVNPLGGAIALGHPLGCTGARQVVTLLNELKRRGRRAYGVVSMCIGTGMGAAAVFEYPGN
B8: Hist1h1b (protein, UniProt P43276 2-223, looked up)
Histone H1.5: SETAPAETAAPAPVEKSPAKKKTTKKAGAAKRKATGPPVSELITKAVSASKERGGVSLPALKKALAAGGYDVEKNNSRIKLGLKSLVSKGTLVQTKGTGASGSFKLNKKAASGEAKPKAKKTGAAKAKKPAGATPKKPKKTAGAKKTVKKTPKKAKKPAAAGVKKVAKSPKKAKAAAKPKKAAKSPAKPKAVKSKASKPKVTKPKTAKPKAAKAKKAVSKKK

Test system: DYT-TOR1A MEF EVs
Assay: Quantitative LC-MS/MS proteomics of EVs from drug-treated DYT-TOR1A MEF cultures (ritonavir, salubrinal)
Assay type: cell-based, mouse
Conditions: Directionality of protein change in MEFs EV dataset in DYT1 derived MEFs treated with Ritonavir

| Molecule | DYT1/DYT1 + RTV |
| --- | --- |
| B1 | DOWN |
| B2 | DOWN |
| B3 | DOWN |
| B4 | DOWN |
| B5 | DOWN |
| B6 | DOWN |
| B7 | DOWN |
| B8 | DOWN |

Same assay, conditions: Directionality of protein change in MEFs EV dataset in DYT1 derived MEFs treated with salubrinal

| Molecule | DYT1/DYT1 + Sal |
| --- | --- |
| B1 | DOWN |
| B2 | DOWN |

Same assay, conditions: Ritonavir; was treatment in MEF's in the direction of WT-like?

| Molecule | RTV Corrective Direction |
| --- | --- |
| B1 | Yes |
| B2 | Yes |
| B3 | Yes |
| B4 | Yes |
| B5 | Yes |
| B6 | Yes |
| B7 | Yes |
| B8 | Yes |

Same assay, conditions: Salubrinal; was treatment in MEF's in the direction of WT-like?

| Molecule | Sal Corrective Direction |
| --- | --- |
| B1 | Yes |
| B2 | Yes |
| B3 | No |
| B4 | No |
| B5 | No |
| B6 | No |
| B7 | No |
| B8 | No |

Test system: WT MEF EVs
Assay: Quantitative LC-MS/MS proteomics of EVs from ISRIB-treated WT MEF cultures
Assay type: cell-based, mouse
Conditions: Directionality of protein change in MEFs EV dataset in WT derived MEFs treated with ISRIB

| Molecule | WT + ISRIB/WT |
| --- | --- |
| B1 | DOWN |
| B2 | DOWN |
| B3 | DOWN |
| B4 | DOWN |
| B5 | DOWN |
| B6 | DOWN |
| B7 | DOWN |
| B8 | DOWN |

Test system: DYT-TOR1A MEF EVs
Assay: Quantitative LC-MS/MS proteomics of MEF EVs, DYT-TOR1A genotype vs WT
Assay type: cell-based, mouse
Conditions: Directionality of protein change in MEFs EV dataset between WT and DYT1 derived MEFs

| Molecule | DYT1/WT |
| --- | --- |
| B1 | DOWN |
| B2 | DOWN |
| B3 | DOWN |
| B4 | DOWN |
| B5 | DOWN |
| B6 | DOWN |
| B7 | DOWN |
| B8 | DOWN |
